Measured values published in PubChem BioAssay AID1347131 (National Center for Advancing Translational Sciences (NCATS), 2019).
The whole screen tested about 410,000 compounds, of which about 2,000 (0.49%) were called active. Inconclusive means that the source gave no clear call. Such entries were picked first, then a sample of the others. Calls follow the shape of the full dose curve; tested in HEK293 reporter line. A potency beside an inconclusive call is a rough fit, not a confirmed value.
Potency is read from the fitted curve at half-maximal effect.

Experiment: qHTS Assay for Foot and Mouth Disease Virus Antivirals: Primary Screen against the MLPCN compound library; also: nearly all actives have a fitted effect of over 55% in size
Details: FMDV antiviral cell-based qHTS; series mostly up to 57.9 µM
With `O=C(O)c1cccc(N/N=C/c2ccc(-c3ccccc3)cc2)c1` the Potency was inconclusive: 14.1 µM [inhibitor, partial curve, poor fit]. With `COc1cc(SC)ccc1C(=O)Nc1ccccn1` the Potency was active: 17.8 µM. In the case of `CC(C)c1ccc(NC(=O)c2cn(C3CCCC3)c(=O)c3c2c2ccccc2n3C)cc1`, the Potency is reported as inconclusive: 6.31 µM [inhibitor, partial curve, poor fit]. In the case of `COc1ccccc1N1CCN(c2nc(CNC(=O)c3sc(C)nc3C)nc3ccccc23)CC1`, the Potency is reported as “inactive”. For `CCCCC(=O)Nc1cccc(-c2nnc(-c3ccccc3)o2)c1`, the Potency was inconclusive: 22.4 µM [inhibitor, single point]. With `CS(=O)(=O)c1ccc2nc(NC(=O)c3cccs3)sc2c1` the Potency was inconclusive: 10 µM [inhibitor, partial curve, poor fit]. For `CC(C)CC(=O)Nc1ccc(-c2nc3ccccc3c(=O)[nH]2)cc1`, the Potency was inconclusive: 14.1 µM [inhibitor, partial curve]. For `CCCCC(=O)NC(c1ccc([N+](=O)[O-])cc1)c1c(O)ccc2ccccc12` (configuration not stated), the Potency was inconclusive: 20 µM [inhibitor, partial curve, poor fit]. With `CC(C)NC(=O)C1CCN(C2CCN(Cc3ccc4cccc(F)c4n3)CC2)CC1` the Potency was inconclusive: 2.82 µM [inhibitor, full curve]. In the case of `CN1CCN(c2ccc(NC(=O)N3CCc4ccccc43)cc2)CC1`, the Potency is reported as inconclusive: 17.8 µM [inhibitor, partial curve, poor fit]. In the case of `O=C(NCc1cccnc1)c1ccc(COc2ccc3c(c2)CCC3)o1`, the Potency is reported as inconclusive: 17.8 µM [inhibitor, partial curve, poor fit]. In the case of `O=C(C1CC1)N(CCc1ccccc1)Cc1nc2ccccc2c(=O)[nH]1`, the Potency is reported as inconclusive: 28.2 µM [inhibitor, partial curve, poor fit]. For `COc1ccc(CC(=O)Nc2ccc(C(N)=O)cc2)cc1`, the Potency was inconclusive: 3.16 µM [inhibitor, full curve]. For `Cc1cccc(NC(=O)CN2CCN(C(=O)CNC(=O)c3ccc(-c4ccccc4)cc3)CC2)c1C`, the Potency was inconclusive: 20 µM [inhibitor, partial curve, poor fit]. With `Cn1cccc1C1C=C(c2ccc(C(C)(C)C)cc2)Nc2ncnn21` (configuration not stated) the Potency was inconclusive: 39.8 µM [inhibitor, single point]. With `O=C(CSc1c2c(nc3ccc(Cl)cc13)CCCC2)NCc1ccco1` the Potency was inconclusive: 25.1 µM [inhibitor, partial curve, poor fit]. In the case of `O=C(NCc1ccco1)c1cc(-c2cccnc2)nc2ccccc12`, the Potency is reported as inconclusive: 8.91 µM [inhibitor, partial curve]. In the case of `Cc1[nH]nc2c1C1(C(=O)Nc3ccc([N+](=O)[O-])cc31)C(C#N)=C(N)O2` (configuration not stated), the Potency is reported as inconclusive: 3.55 µM [inhibitor, full curve]. With `O=C(Nc1ccc(S(=O)(=O)C(F)F)cc1)c1cccc(S(=O)(=O)N2CCOCC2)c1` the Potency was inconclusive: 17.8 µM [inhibitor, partial curve, poor fit]. With `CN(C)C(=O)c1ccc(SC(=S)NCc2ccccc2)cc1` the Potency was inconclusive: 35.5 µM [inhibitor, partial curve, poor fit]. In the case of `Cc1cc(C)cc(Oc2nc3c(C)cccn3c(=O)c2/C=C(\C#N)C(=O)NC2CCS(=O)(=O)C2)c1` (configuration not stated), the Potency is reported as inconclusive: 22.4 µM [inhibitor, partial curve, poor fit]. With `CCCCCCSc1cc(-c2nc3ccc(C)cn3c2NCc2ccccc2)ccc1OC` the Potency was inconclusive: 39.8 µM [inhibitor, partial curve, poor fit]. For `COc1cccc(/C=N/NC(=O)c2cc3c(OC)ccc(OC)c3[nH]2)c1O`, the Potency was inconclusive: 11.2 µM [inhibitor, partial curve, poor fit]. With `O=C(Nc1ccc(N2CCOCC2)cc1)c1cnccn1` the Potency was active: 12.6 µM. For `CN1CCN(S(=O)(=O)c2cccc(C(=O)Nc3ccc(Br)cc3Br)c2)CC1`, the Potency was “inactive”. In the case of `Cc1cccc(NC(=O)c2ccc3c(Cl)c4c(nc3c2)CCCC4)n1`, the Potency is reported as inconclusive: 15.8 µM [inhibitor, partial curve]. With `Cc1ccc(NC(=O)CSc2ccccc2NC(=O)c2ccccc2Cl)cc1Cl` the Potency was inconclusive: 39.8 µM [inhibitor, single point]. In the case of `COCCCn1c(=O)c2sccc2n(Cc2ccccc2C)c1=O`, the Potency is reported as inconclusive: 17.8 µM [inhibitor, single point]. With `O=C1c2ccccc2C(=O)N1CCc1nc2ccccc2c(=O)n1Cc1ccco1` the Potency was inconclusive: 28.2 µM [inhibitor, partial curve, poor fit]. With `CC(=O)c1cccc([N+](=O)[O-])c1` the Potency was inconclusive: 2 µM [inhibitor, full curve]. With `CCOC(=O)N1CCN(C(=O)CSCC(=O)Nc2nc(-c3cccs3)cs2)CC1` the Potency was inconclusive: 14.1 µM [inhibitor, partial curve, poor fit]. For `COc1cc(N2C(=O)C=CC2=O)c(OC)cc1Cl`, the Potency was inconclusive: 35.5 µM [inhibitor, partial curve, poor fit]. For `O=C(NCc1ccccc1Cl)c1ccc(Cn2cc(C(F)(F)F)ccc2=O)cc1`, the Potency was inconclusive: 20 µM [inhibitor, single point]. For `COc1cc(C(=O)NCC(c2ccco2)N2CCCC2)ccc1OCc1ccc(Cl)cc1Cl` (configuration not stated), the Potency was inconclusive: 2.82 µM [inhibitor, full curve]. In the case of `Cc1cccc(C2=NNC(=O)C(c3ccc(Cl)cc3)C2)c1` (configuration not stated), the Potency is reported as inconclusive: 15.8 µM [inhibitor, partial curve]. In the case of `Cc1ccc(S(=O)(=O)N2CCN(C(=O)C3CCN(c4ncnc5sc(C)c(C)c45)CC3)CC2)c(C)c1`, the Potency is reported as inconclusive: 20 µM [inhibitor, partial curve, poor fit]. For `OC[C@@H]1CN(Cc2ccc(-c3ccccc3)cc2)C[C@H](n2cnc3c(NCc4ccc(F)cc4)ncnc32)O1`, the Potency was inconclusive: 28.2 µM [inhibitor, partial curve, poor fit].
